Earlier results, collected in patent US12622895B2, “Anti-neurodegenerative combinations and use for treatment of neurodegenerative diseases” (ALTO NEUROSCIENCE, INC., priority 2018, dated 2026).

System: brain cell systems
Conditions: cited from earlier work

CC(C)c1c(C(=O)Nc2ccccc2)c(-c2ccccc2)c(-c2ccc(F)cc2)n1CC[C@@H](O)C[C@@H](O)CC(=O)O [atorvastatin, (3R,5R)-7-[2-(4-fluorophenyl)-3-phenyl-4-(phenylcarbamoyl)-5-propan-2-ylpyrrol-1-yl]-3,5-dihydroxyheptanoic acid]
consequences of the dopaminergic neurotoxin 6-OHDA: protect against the deleterious consequences of the dopaminergic neurotoxin 6-hydroxydopamine
